Results are given in words; binding and its absence hold for the method and conditions named. Some results given as binding are weak or reduced against the parent protein; the word gives no strength.
Assays:
[1] = biological target: N-terminal 6xHis-MBP tagged Exoc1 (human) (UniProt Q9NV70); assay: SEC; reconstitution of subcomplex-1, subcomplex-2 and holocomplex: Sf9 cultures mixed before lysis, capture on amylose resin by the 6xHis-MBP tagged subunit, HRV-3C cleavage, Superose 6 Increase 10/300 GL in 20 mM HEPES, 250 mM NaCl, 0.5 mM TCEP; peak fractions on SDS-PAGE
[2] = biological target: N-terminal 6xHis-MBP tagged Exoc1 (human) (UniProt Q9NV70); assay: SEC; partial complexes Exoc1:mNeonGreen-Exoc4 and Exoc5:mNeonGreen-Exoc6:Exoc7: amylose resin, HRV-3C cleavage, Superdex200 10/300 GL in 20 mM HEPES, 250 mM NaCl, 0.5 mM TCEP

Amino acid sequences for entries named in this document (tags omitted).
UniProt Q9NV70: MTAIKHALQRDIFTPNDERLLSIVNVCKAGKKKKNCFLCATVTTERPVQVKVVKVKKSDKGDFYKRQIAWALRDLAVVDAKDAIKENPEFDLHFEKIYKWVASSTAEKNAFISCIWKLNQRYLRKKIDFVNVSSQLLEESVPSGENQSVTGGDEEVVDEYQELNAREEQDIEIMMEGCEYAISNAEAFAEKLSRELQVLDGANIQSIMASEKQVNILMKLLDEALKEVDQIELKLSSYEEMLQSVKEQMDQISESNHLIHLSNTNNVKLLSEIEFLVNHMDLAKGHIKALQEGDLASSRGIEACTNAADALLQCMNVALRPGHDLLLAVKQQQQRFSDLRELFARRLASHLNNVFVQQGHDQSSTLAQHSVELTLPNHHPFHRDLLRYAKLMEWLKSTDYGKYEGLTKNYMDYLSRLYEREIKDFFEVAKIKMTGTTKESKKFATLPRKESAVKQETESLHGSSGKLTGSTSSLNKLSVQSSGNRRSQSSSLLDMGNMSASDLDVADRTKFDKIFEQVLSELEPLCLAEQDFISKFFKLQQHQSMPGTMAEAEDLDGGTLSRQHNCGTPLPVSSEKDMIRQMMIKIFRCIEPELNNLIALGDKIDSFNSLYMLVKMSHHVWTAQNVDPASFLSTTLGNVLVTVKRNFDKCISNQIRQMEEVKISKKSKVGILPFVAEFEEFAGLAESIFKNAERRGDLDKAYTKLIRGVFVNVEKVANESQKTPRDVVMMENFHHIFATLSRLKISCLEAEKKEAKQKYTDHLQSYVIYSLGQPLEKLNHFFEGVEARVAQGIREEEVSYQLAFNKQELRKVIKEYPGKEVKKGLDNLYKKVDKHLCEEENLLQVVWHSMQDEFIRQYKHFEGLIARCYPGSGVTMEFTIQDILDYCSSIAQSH
UniProt O60645: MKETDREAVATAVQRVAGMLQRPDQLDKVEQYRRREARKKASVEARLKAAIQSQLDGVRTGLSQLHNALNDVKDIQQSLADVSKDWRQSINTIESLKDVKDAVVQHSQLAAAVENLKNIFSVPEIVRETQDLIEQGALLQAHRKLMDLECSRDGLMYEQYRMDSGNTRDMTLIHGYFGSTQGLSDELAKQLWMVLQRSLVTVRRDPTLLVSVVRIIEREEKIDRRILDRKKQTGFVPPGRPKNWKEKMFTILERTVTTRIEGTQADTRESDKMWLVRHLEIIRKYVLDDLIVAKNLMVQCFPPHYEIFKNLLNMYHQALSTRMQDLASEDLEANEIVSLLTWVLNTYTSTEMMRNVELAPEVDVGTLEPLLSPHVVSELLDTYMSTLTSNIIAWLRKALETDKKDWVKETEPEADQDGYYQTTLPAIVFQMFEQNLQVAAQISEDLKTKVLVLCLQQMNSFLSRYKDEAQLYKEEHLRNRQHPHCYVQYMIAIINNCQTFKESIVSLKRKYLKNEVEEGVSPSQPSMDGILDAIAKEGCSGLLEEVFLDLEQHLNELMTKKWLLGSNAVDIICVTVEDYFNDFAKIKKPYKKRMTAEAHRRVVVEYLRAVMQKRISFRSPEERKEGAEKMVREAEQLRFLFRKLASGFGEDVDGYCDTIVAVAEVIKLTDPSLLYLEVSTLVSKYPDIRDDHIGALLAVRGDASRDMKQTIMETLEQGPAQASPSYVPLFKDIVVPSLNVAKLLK
UniProt Q96KP1: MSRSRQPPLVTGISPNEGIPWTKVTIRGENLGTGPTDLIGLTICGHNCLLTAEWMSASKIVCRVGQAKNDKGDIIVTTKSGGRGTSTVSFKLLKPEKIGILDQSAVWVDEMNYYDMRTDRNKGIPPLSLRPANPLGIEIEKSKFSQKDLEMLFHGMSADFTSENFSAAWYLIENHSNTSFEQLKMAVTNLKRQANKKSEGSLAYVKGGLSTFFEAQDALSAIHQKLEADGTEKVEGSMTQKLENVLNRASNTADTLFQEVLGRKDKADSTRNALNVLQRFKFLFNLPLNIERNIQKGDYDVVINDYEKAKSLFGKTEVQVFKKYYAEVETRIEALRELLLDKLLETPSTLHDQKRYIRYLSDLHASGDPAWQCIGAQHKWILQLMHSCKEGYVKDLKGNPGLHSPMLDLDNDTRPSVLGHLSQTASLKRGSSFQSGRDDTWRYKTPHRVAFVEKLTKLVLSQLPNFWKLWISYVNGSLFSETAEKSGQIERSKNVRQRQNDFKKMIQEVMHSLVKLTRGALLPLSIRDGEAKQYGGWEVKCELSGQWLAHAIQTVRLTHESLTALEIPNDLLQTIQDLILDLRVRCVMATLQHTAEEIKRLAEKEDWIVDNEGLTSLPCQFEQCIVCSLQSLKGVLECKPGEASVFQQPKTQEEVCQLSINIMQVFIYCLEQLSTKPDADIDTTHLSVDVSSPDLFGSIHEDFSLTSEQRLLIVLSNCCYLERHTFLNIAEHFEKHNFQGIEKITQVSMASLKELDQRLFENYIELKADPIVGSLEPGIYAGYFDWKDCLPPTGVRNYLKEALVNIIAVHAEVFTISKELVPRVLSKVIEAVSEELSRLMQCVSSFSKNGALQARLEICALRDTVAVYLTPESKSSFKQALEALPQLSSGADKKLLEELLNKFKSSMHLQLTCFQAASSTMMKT
UniProt Q96A65: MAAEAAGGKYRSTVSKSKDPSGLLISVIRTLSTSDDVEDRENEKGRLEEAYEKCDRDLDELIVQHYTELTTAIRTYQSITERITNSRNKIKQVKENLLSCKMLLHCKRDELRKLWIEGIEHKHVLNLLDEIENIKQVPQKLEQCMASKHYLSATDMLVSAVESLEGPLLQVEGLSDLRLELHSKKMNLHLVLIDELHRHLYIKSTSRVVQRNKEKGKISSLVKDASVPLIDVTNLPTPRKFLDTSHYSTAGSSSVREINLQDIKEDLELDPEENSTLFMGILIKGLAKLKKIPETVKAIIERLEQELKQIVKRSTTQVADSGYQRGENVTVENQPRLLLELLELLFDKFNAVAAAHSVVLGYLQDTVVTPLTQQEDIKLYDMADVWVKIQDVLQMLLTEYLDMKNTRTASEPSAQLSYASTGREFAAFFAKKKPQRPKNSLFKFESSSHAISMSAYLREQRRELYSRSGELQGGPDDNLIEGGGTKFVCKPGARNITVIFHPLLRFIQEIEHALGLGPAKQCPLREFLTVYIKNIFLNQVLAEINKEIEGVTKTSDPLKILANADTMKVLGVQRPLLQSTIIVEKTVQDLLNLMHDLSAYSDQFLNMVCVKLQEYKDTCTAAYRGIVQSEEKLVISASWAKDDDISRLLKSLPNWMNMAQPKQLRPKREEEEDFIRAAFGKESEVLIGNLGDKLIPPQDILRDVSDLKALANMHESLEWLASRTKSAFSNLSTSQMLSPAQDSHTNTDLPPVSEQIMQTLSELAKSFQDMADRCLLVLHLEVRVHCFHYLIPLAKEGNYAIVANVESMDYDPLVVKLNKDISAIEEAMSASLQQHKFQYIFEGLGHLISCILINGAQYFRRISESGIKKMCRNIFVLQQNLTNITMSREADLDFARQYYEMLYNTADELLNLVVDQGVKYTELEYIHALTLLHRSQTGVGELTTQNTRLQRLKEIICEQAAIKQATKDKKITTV

Row | Substance | binding [1] | binding [2]
1 | Exoc3 (from UniProt O60645 1-745) | binds | –
2 | Exoc2 (from UniProt Q96KP1 1-924) | binds | –
3 | N-terminal 6xHis-mNeonGreen tagged Exoc4 (from UniProt Q96A65 1-974) | binds | binds
